We go through 39 compounds from PubChem BioAssay AID2685 (National Center for Advancing Translational Sciences (NCATS), 2010).

This is one part of the list. Shown are side measurements of this screen, not its main read-out; they come without a call. Most of these compounds were active or inconclusive in the main read-out, so they are no random draw. The note in brackets gives the kind of curve behind each potency; many fits are weak.

The nature of the assay: qHTS Assay for Lipid Storage Modulators in Drosophila S3 Cells.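 As to cell number change: cells counted by Cell Tracker Red CMTPX staining in the red channel.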 Particulars: BODIPY lipid droplet fluorescence, 18-24 h; for cell number change: measured here: cell count max response, cells fed with added oleic acid. The procedure, abridged: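 Laser-scanning cytometry quantifies lipid droplet accumulation (500–530 nm total intensity; droplet/cell object ratio) in oleic acid-fed (400 uM added) Drosophila S3 cells treated with a concentration series. 20 uM Triacsin C defined 100% inhibition.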

[1] abbreviates: measured here: lipid fluorescence (Fed channel) AC50, cells fed with added oleic acid.
Where [2] appears, read: measured here: cell number channel AC50, cells fed with added oleic acid.

As a reminder, the AC50 is the concentration at which the activity in the assay is half-maximal. A higher AC50 goes with activity only at high concentration.

As to `COC(=O)[C@H](Cc1ccccc1)NC(=O)NCc1ccccc1OC`, the cell number change turned out to be 11.6%. Besides, under setting [1], the AC50 is 6.51 µM [falling, single point].

As for `CCOCCN1CCN(c2c(CC)c(C)nc3cc(-c4cc(OC)cc(OC)c4)nn23)CC1`, the cell number change was -14.9%. Moreover, under setting [1], the AC50 is 9.2 µM [falling, single point].

As to `CN(C)CCCNC(=O)c1ccc(Cl)c(S(=O)(=O)N2CCCCCC2)c1`, the cell number change was -33.6%. The AC50 under setting [2] is 20.6 µM [falling, single point]. Also, the AC50 under setting [1] was 20.6 µM [falling, single point].

On to `CCC(C(=O)NCCC(C)C)n1ccc2cc(S(=O)(=O)N3CCCCC3)ccc21` (stereo not drawn), for which the cell number change is -21.3%. In addition, the AC50 under setting [1] is 1.64 µM [falling, partial curve].

`Cc1ccc(NC(=S)NNc2ncc(C(F)(F)F)cc2Cl)c(C)c1`: the AC50 was 1.46 µM [rising, partial curve] under setting [2] and 1.64 µM [rising, partial curve] under setting [1].

As for `CC(=O)N1c2ccc(S(=O)(=O)N3CCC(C(=O)N4CC(C)CC(C)C4)CC3)cc2CC1C` (stereo not drawn), the cell number change is -5.77%. The AC50 under setting [1] is 0.411 µM [falling, single point].

For `COc1ccccc1NS(=O)(=O)c1cc(C(=O)NCC(c2ccc(F)cc2)N2CCOCC2)ccc1C` (stereo not drawn), the cell number change is 115%. Moreover, the AC50 under setting [2] was 14.6 µM [rising, partial curve].

For the compound `O=C(N/N=C/c1cccnc1)c1ccc(NC(=O)C(c2ccccc2)c2ccccc2)cc1`, the cell number change amounted to 5.06%. Also, the AC50 under setting [1] is 2.31 µM [falling, full curve, poor fit].

With `c1ccc(Nc2ccc(-n3ccnc3)nn2)cc1`, the cell number change is -95.2%. Under setting [2], the AC50 is 20.6 µM [falling, single point].

`CN(CC(=O)NCC1CCCCC1)S(=O)(=O)c1ccc(Cl)cc1`: the cell number change was 4.27%. For the same compound, the AC50 under setting [1] is 18.4 µM [rising, single point].

Regarding `COc1cccc(OCCOc2ccccc2OC(C)C)c1`, the cell number change is -15.1%. Also, the AC50 under setting [1] was 7.31 µM [rising, partial curve, poor fit].

Consider `CCC(=O)N1CCc2cc(S(=O)(=O)Nc3ccccc3C)ccc21`, for which the cell number change came to 11.1%. Further, the AC50 under setting [1] was 6.51 µM [rising, single point].

With `CC1(C)CNC(=O)c2sc(N3CCCCC3)nc2C1`, the cell number change was -18.8%.

Consider `COc1cc(/C=N/NC(=O)CN2CCCCC2)ccc1OCc1ccc(Br)cc1`, for which the cell number change was determined as 10.2%. Also, under setting [2], the AC50 is 0.092 µM [falling, full curve, poor fit].

Take `COc1ccccc1CNC(=O)Cn1cccc1`: the cell number change was 6.51%.

Consider `COC(=O)COc1ccc(C(c2c(C)[nH][nH]c2=O)c2c(C)[nH][nH]c2=O)cc1`, for which the cell number change was -2.47%. Further, the AC50 under setting [1] was 29.1 µM [rising, single point].

Consider `Cc1ccc(-c2nn3c(C)nnc3c3ccccc23)cc1S(=O)(=O)NC(C)c1ccccc1` (stereo not drawn), for which the cell number change is -20%. For the same compound, under setting [1], the AC50 is 16.4 µM [falling, single point].

On to `CC1(C)Cc2cccc(Oc3cc(NN4CCCCC4)c([N+](=O)[O-])cc3[N+](=O)[O-])c2O1`, for which the cell number change was -0.324%. Further, the concentration at half-maximal activity (AC50) under setting [1] is 0.0206 µM [falling, full curve].

With `O=C(NCCS(=O)(=O)NCc1ccccc1Cl)c1ccccc1`, the cell number change was found to be 34.4%. Also, the AC50 under setting [2] was 29.1 µM [rising, single point]. Besides, the AC50 under setting [1] was 6.51 µM [falling, single point].

For `Cc1nccn1CCN(C)Cc1cn(Cc2ccccc2)nc1-c1ccc2c(c1)OCO2`, the AC50 under setting [2] was 4.11 µM [falling, single point].

Regarding `COc1ccc2nc(SCC(=O)Nc3ccc(S(=O)(=O)N4CCCC4)cc3)c(C#N)cc2c1`, the cell number change was -3.24%. Moreover, the AC50 under setting [1] is 6.51 µM [rising, single point].

For the compound `Cc1cccc(CN2CCN(CC(=O)O)C2=O)c1`, the cell number change was determined as 20.5%. Under setting [2], the AC50 was 0.82 µM [rising, full curve, poor fit].

Turning to `Cc1ccnc2nc(C(=O)NCc3cccs3)nn12`, the cell number change was determined as 1.94%.

Take `Cc1nn(C(C)(C)C)c(OC(=O)C2CCCC2)c1S(=O)(=O)c1ccccc1`: the cell number change is -18.5%. Besides, the AC50 under setting [2] was 0.00411 µM [falling, full curve, poor fit].

As for `CC(C)c1ccc(NC(=O)CSc2nc3ccccc3nc2N2CCCC2)cc1`, the cell number change is -6.05%. In addition, under setting [1], the AC50 is 29.1 µM [falling, single point].

Consider `Cc1ccc(CS(=O)Cc2ccc(C(=O)NCc3cccs3)o2)cc1` (stereo not drawn), for which the AC50 under setting [2] is 0.00461 µM [falling, full curve, poor fit].

`CCCCC(=O)Nc1nnc(SCC(=O)NC2CC2)s1`: the cell number change was 12.5%.

Turning to `CSc1nc2c(cc1C#N)CCC2`, the cell number change amounted to 14.4%.

With `CC(Sc1nnc2ccccn12)C(N)=O` (stereo not drawn), the AC50 reads like this: under setting [2], 0.58 µM [rising, single point]; under setting [1], 0.58 µM [rising, partial curve, poor fit].

Take `O=C1CC(=O)N(c2ccccc2)N1c1ccccc1`: the AC50 under setting [1] was 32.6 µM [falling, single point].

As for `COc1ccc2[nH]c3c(c2c1)CCN1C(=O)N([C@@H](C)C(=O)NC2CCCC2)C(=O)[C@]31C`, the cell number change worked out at 20.4%.

Turning to `CCOc1ccc(S(=O)(=O)NCCC(=O)NCC2COc3ccccc3O2)cc1` (stereo not drawn), the cell number change worked out at 18.5%. Also, the AC50 under setting [2] is 0.13 µM [rising, full curve, poor fit].

Turning to `COC(=O)c1c(NC(=O)CN2CCN(S(=O)(=O)c3ccccc3[N+](=O)[O-])CC2)sc2c1CCC(C)C2` (stereo not drawn), the cell number change was -33.3%. Also, the AC50 under setting [2] was 0.82 µM [falling, full curve, poor fit]. In addition, the AC50 under setting [1] was 0.517 µM [rising, full curve].

As for `CCCNc1c(NS(=O)(=O)c2c(F)c(F)c(F)c(F)c2F)c(=O)oc2ccccc12`, the cell number change is 4.29%.

Turning to `CC(=O)c1cccc(NC(=O)c2ccc3c(c2)C(=O)N(Cc2cccnc2)C3=O)c1`, the cell number change was -42.2%. Under setting [2], the AC50 is 29.1 µM [falling, single point]. Further, the AC50 under setting [1] was 4.61 µM [falling, single point].

With `CC(C(=O)NC1CCCCCC1)c1ccc([N+](=O)[O-])cc1` (stereo not drawn), the cell number change worked out at 2.19%.

Consider `O=C(NCCc1ccccc1)C1CCCN(S(=O)(=O)c2cccnc2)C1` (stereo not drawn), for which the cell number change was determined as 14.5%. Besides, the AC50 under setting [2] is 0.0291 µM [rising, full curve, poor fit]. In addition, the AC50 under setting [1] is 0.116 µM [rising, full curve, poor fit].

As to `CCOC(=O)C1=C(COC(=O)/C=C/c2ccccc2Cl)NC(=O)NC1C` (stereo not drawn), the cell number change stood at 11.1%. Under setting [1], the AC50 is 1.46 µM [rising, full curve, poor fit].

In the case of `CCN(CC)CCNC(=O)c1ccc(NC(=O)c2cc(-c3ccncc3)nc3ccccc23)cc1`, the cell number change was -46.5%. Also, under setting [2], the AC50 is 2.31 µM [falling, partial curve]. Besides, the AC50 under setting [1] is 20.6 µM [falling, single point].
